Experimental data from paper PMC6413005.
Results are given in words; binding and its absence hold for the method and conditions named. Some results given as binding are weak or reduced against the parent protein; the word gives no strength. Where a sequence is shown, tags or fusion partners need not be part of it.

Amino acid sequences for entries named in this document (tags omitted). Residues count along the entry.
UniProt P08195, residues 102-630: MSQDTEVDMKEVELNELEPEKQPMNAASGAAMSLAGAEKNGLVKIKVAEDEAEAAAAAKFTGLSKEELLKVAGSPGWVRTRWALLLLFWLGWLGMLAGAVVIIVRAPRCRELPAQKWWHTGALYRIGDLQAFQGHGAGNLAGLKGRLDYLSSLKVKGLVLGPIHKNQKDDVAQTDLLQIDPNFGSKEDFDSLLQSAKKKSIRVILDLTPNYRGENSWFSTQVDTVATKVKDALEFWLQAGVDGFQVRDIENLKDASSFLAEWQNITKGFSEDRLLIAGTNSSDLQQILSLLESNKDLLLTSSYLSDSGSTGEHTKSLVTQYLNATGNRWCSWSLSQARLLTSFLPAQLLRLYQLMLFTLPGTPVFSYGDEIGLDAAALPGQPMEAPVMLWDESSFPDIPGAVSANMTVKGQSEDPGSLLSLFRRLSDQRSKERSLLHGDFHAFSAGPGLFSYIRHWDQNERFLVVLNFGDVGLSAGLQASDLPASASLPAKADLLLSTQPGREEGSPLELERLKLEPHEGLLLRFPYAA

Tests used:
[1] = target: human 4F2hc (SLC3A2), His-tagged heavy subunit (human) (UniProt P08195); test: native gel or EMSA; BN-PAGE (4-16% gradient gel) of the Ni-NTA purified, co-expressed complex in LMNG/CHS, 5 ug per lane; Coomassie stain and Western blots with anti-His (4F2hc) and anti-Strep (LAT2) antibodies; both purified
[2] = target: human 4F2hc (SLC3A2), His-tagged heavy subunit (human) (UniProt P08195); test: cryo-EM structure; single particle cryo-EM with Volta phase plate, 200 kV FEI Tecnai F20, Falcon III; purified complex at 300 ug/mL in 20 mM Bis-Tris propane pH 6.8, 150 mM NaCl, 2% glycerol, 0.01% LMNG/CHS; 47,933 particles, ~13 Å; both purified

B1: human LAT2 (SLC7A8), Strep-tagged light subunit (protein, UniProt Q9UHI5 1-535)
chain: MEEGARHRNNTEKKHPGGGESDASPEAGSGGGGVALKKEIGLVSACGIIVGNIIGSGIFVSPKGVLENAGSVGLALIVWIVTGFITVVGALCYAELGVTIPKSGGDYSYVKDIFGGLAGFLRLWIAVLVIYPTNQAVIALTFSNYVLQPLFPTCFPPESGLRLLAAICLLLLTWVNCSSVRWATRVQDIFTAGKLLALALIIIMGIVQICKGEYFWLEPKNAFENFQEPDIGLVALAFLQGSFAYGGWNFLNYVTEELVDPYKNLPRAIFISIPLVTFVYVFANVAYVTAMSPQELLASNAVAVTFGEKLLGVMAWIMPISVALSTFGGVNGSLFTSSRLFFAGAREGHLPSVLAMIHVKRCTPIPALLFTCISTLLMLVTSDMYTLINYVGFINYLFYGVTVAGQIVLRWKKPDIPRPIKINLLFPIIYLLFWAFLLVFSLWSEPVVCGIGLAIMLTGVPVYFLGVYWQHKPKCFSDFIELLTLVSQKMCVVVYPEVERGSGTEEANEDMEEQQQPMYQPTPTKDKDVAGQPQP
- binding [1]: binds
- binding [2]: binds
